Earlier results as cited in publication PMC6117091, “The C. difficile clnRAB operon initiates adaptations to the host environment in response to LL-37” (PLoS Pathogens, 2018).

Settings: ref [6]–[8]; cited from earlier work

In the case of `CC[C@H](C)[C@H](NC(=O)[C@H](CCCCN)NC(=O)[C@H](CCC(=O)O)NC(=O)[C@H](CCCCN)NC(=O)[C@H](CO)NC(=O)[C@H](CCCCN)NC(=O)[C@H](CCCNC(=N)N)NC(=O)[C@H](Cc1ccccc1)NC(=O)[C@H](Cc1ccccc1)NC(=O)[C@H](CC(=O)O)NC(=O)CNC(=O)[C@H](CC(C)C)NC(=O)[C@@H](N)CC(C)C)C(=O)NCC(=O)N[C@@H](CCCCN)C(=O)N[C@@H](CCC(=O)O)C(=O)N[C@@H](Cc1ccccc1)C(=O)N[C@@H](CCCCN)C(=O)N[C@@H](CCCNC(=N)N)C(=O)N[C@H](C(=O)N[C@H](C(=O)N[C@@H](CCC(N)=O)C(=O)N[C@@H](CCCNC(=N)N)C(=O)N[C@H](C(=O)N[C@@H](CCCCN)C(=O)N[C@@H](CC(=O)O)C(=O)N[C@@H](Cc1ccccc1)C(=O)N[C@@H](CC(C)C)C(=O)N[C@@H](CCCNC(=N)N)C(=O)N[C@@H](CC(N)=O)C(=O)N[C@@H](CC(C)C)C(=O)N[C@H](C(=O)N1CCC[C@H]1C(=O)N[C@@H](CCCNC(=N)N)C(=O)N[C@H](C(=O)N[C@@H](CCC(=O)O)C(=O)N[C@@H](CO)C(=O)O)[C@@H](C)O)C(C)C)[C@@H](C)CC)C(C)C)[C@@H](C)CC` [LL-37], the “level in feces during shigellosis” value is given as ~ 5 μg per gram of feces.
